All values are in %.
The controls that fix the scale are not given in the record; negative values are as filed.
Compounds were drawn at random from those tested, without regard to their results.
A dash means the value is not listed here; it may have been measured.

The chains behind the UniProt entries cited, without tags or fusion partners.
UniProt E9BF75, entry or part of it: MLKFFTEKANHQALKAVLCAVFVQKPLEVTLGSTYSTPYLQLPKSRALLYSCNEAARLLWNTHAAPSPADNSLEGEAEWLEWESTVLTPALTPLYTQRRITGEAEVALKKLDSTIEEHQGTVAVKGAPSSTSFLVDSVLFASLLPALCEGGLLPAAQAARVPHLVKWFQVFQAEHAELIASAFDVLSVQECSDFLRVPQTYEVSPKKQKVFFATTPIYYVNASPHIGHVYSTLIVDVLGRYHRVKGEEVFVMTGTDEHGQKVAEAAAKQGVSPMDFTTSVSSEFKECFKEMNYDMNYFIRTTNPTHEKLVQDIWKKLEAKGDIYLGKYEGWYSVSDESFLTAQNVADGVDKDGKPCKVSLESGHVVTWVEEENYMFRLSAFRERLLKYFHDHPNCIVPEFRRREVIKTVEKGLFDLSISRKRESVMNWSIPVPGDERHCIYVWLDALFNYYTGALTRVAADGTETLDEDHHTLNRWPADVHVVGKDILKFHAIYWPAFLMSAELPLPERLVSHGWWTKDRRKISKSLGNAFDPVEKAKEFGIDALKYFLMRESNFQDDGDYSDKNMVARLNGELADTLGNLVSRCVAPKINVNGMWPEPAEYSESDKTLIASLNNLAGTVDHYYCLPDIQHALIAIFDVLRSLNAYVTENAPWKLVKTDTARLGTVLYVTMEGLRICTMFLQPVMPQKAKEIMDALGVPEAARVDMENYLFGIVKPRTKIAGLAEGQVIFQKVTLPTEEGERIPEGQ

A: 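Methionyl-tRNA synthetase (putative), Leishmania donovani (UniProt E9BF75). Primary screen of methionyl-tRNA synthetase; the read-out is not stated. The test concentration is not given. Values are per cent inhibition. About 68,000 compounds were tested under these conditions; 0.035% (about 24) showed 50% or more at least once.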
B: 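Assay on Mycobacterium tuberculosis, filed only as a heat shock assay from Cornell; the read-out is not stated. The concentration is filed as 10 mM, unlikely as a test dose, so the dose is not known. The record gives no direction; compounds that gave an IC50 in retests scored well above the rest, so higher reads as stronger inhibition. Of about 69,000 compounds tested this way, about 930 (1.4%) reached 50% or more in at least one test.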

compound | A | B
COCC1CN(S(=O)(=O)N(C)C)Cc2cnn(CC3CCCC3)c21 (centres unmarked) | 11.28 | -
CCCS(=O)(=O)N1CCOC2(CCCN(c3ccccn3)C2)C1 (centres unmarked) | 8.934 | -
COCCN1C(=O)CC[C@@H]2[C@H]1CCN2Cc1cccc(C#N)c1 | 11.44 | -
CC(=O)N1CCCC2(CCN(Cc3ccc(Cl)c(F)c3)C2)C1 (centres unmarked) | 15.68 | -2.235
COc1ccccc1-c1ccc(C2CCCN(C(C)=O)C2)nc1 (centres unmarked) | 16.2 | -15.94
Cn1c(CCNC(=O)Nc2cn[nH]c2)nc2ccc(F)cc21 | 19.16 | -4.418
O=C(O)C(F)(F)F.O=C(O)C(F)(F)F.c1ccc(OCc2nnc3n2CCN(CC2CC2)C3)nc1 | - | -4.626
COc1ccc2c(c1)c(C(=O)Nc1cc(C)n(C)n1)cn2C(C)C | 14.56 | 15.21
[H][C@@]12CN(CCOC)C[C@]1([H])[C@H](OC)CCN2C(=O)COc1ccccc1 | - | -1.092
CCC(CC)S(=O)(=O)NC(=O)c1ccc2c(c1)ncn2C | 16.25 | -17.24
Cc1ncccc1CNCC1CCc2nnc(C(C)C)n2C1 (centres unmarked) | 21.09 | 13.32
O=S1(=O)C[C@@H]2[C@H](C1)N(Cc1ncc[nH]1)CCN2CCCc1ccccc1 | 8.355 | -
COCCCNC1CCCN(c2ccc(C)nn2)C1 (centres unmarked) | 8.059 | -3.145
CC(C)=CCN1C[C@H]2CC[C@@H]1CN(S(=O)(=O)c1cccnc1)C2 | 15.47 | -
COc1cccc(OCC2CCCN(C(=O)CCCn3cccn3)C2)c1 (centres unmarked) | 20.46 | -43.97
COCCn1cc(NCc2c[nH]nc2C(C)(C)C)cn1 | 5.686 | 7.242
Cc1ccccc1S(=O)(=O)CCOC(C)C | 8.377 | -9.053
N#Cc1ccc(CN2CCN(C(=O)CCn3cncn3)CC2)cc1 | 14.75 | -2.29
Cc1noc(C)c1CN(C)C(=O)CCn1c(=O)n(C)c2ccccc21 | 14.93 | 13.78
Cn1nc(COc2cccnc2)c2c1CCN(c1cnccn1)C2 | 21.89 | -
CCN1CCN(CC(=O)N2CCOC(Cc3ccc(OC)cc3)C2)CC1 (centres unmarked) | 12.54 | 13.14
O=C(c1ccncc1)N1CCOC2(COCCN(c3cccnc3)C2)C1 (centres unmarked) | 10.95 | -
CC(C)NC(=O)[C@H]1C[C@@H]2[C@@H](C1)OCCN2Cc1cccs1 | 14.01 | -
Cn1cc(C[C@H]2[C@@H](O)CCN2C(=O)C2CC=CC2)cn1 | 4.902 | 22.84
O=S(=O)(CCCc1ccccc1)Cc1nnnn1C1CC1 | 17.04 | -2.49
Nc1nc(CCC(=O)N2C[C@@H](CN3CCCC3)C[C@H](CO)C2)n[nH]1 | 2.466 | -21.81
CCc1ccsc1C(=O)N1CCN(CC(C)O)CC1 (centres unmarked) | 24.59 | -13.02
CCn1ncnc1C(C)NC(=O)C1CCN(C(C)C)CC1 (centres unmarked) | 7.807 | 3.684
C[C@@H]1CN(S(=O)(=O)N2CCCCCC2)C[C@@]1(O)C1CCC1 | 9.97 | -69.62
NC(=O)c1ccc(N2CCN(Cc3c(Cl)cncc3Cl)CC2)nc1 | 5.292 | -31.75
COCC(=O)NC[C@H]1C[C@@H]2CCN1C[C@@H]2c1cc(-c2cccs2)nn1C | 9.023 | -
O=C1CCC(C(=O)NCCOc2ccccc2-c2ccccc2)CN1 (centres unmarked) | 3.297 | -16.6
CCS(=O)(=O)N1CCC2(CN(c3cccc(C)n3)C2)C1.O=C(O)C(F)(F)F | - | -12.03
CCN(CC)S(=O)(=O)c1cc(NC(=O)CCc2cscn2)ccc1C | 9.589 | -3.555
CS(=O)(=O)NC[C@@H]1OC[C@H]2CN(Cc3ccccc3)CC[C@H]21 | 16.94 | -
Fc1ccccc1CN1CCC[C@@H](Cn2nnc(-c3cccs3)n2)C1 | 17.44 | 16.97
CC(C)n1ccnc1Cn1ccc2ncccc2c1=O | -6.723 | -20.98
CSc1nccn1-c1cccc(C(=O)NCc2nnc(C)n2C)c1 | 18.11 | -18.88
COCC(C)N(C)C(=O)c1nc(S(C)(=O)=O)n2ccccc12 (centres unmarked) | 6.135 | -1.734
CCNC(=O)N1CCN(Cc2nc3ccccc3[nH]2)[C@@H]2CS(=O)(=O)C[C@@H]21 | 14.5 | -
O=C(C1CC1)N1CCc2[nH]cnc2C12CCN(C1CCOCC1)CC2 | 6.452 | -5.391
O=C(CN1CCC(c2ccccc2)C1)NC(=O)NCC(F)(F)F (centres unmarked) | 14.75 | -57.35
CC(C(=O)Nc1cccc(Cl)c1)N1CCN(Cc2ncc[nH]2)CC1 (centres unmarked) | 14.93 | 13.18
CC(=O)Nc1ccc(S(=O)(=O)Nc2c(F)cccc2F)cc1 | -1.229 | 6.981
Fc1cnc(N2CCCn3c(CN4CCOCC4)nnc3C2)nc1.O=C(O)C(F)(F)F.O=C(O)C(F)(F)F | - | 0.2639
COc1ccc(-n2ccc(C(=O)NCCn3ccnc3)n2)cc1 | 18.29 | -6.781
Cc1cc2ccccc2n1CCC(=O)N1CCCC2(CC1)CNC(=O)O2 (centres unmarked) | 16.88 | -24.53
COc1ccc(CN(C)C(=O)CSc2nnc(N)s2)c(OC)c1OC | 9.42 | 7.303
COc1ccc(CNC(=O)NC2CCN(C)CC2)c(C(F)(F)F)c1 | 23.57 | -21.83
CS(=O)(=O)NCc1cnc2n1CCN(Cc1cccs1)CC2 | 11.25 | -
O=C(c1nn(-c2ccccc2F)cc1O)N1CCCCC1 | 8.939 | 22.71
CC(C)(C)NC(=O)N1CCN2C(=O)OCC2C1 (centres unmarked) | 3.261 | 11.28
CCc1nc(CN2CCCC(NCc3cnn(C(C)(C)C)c3)C2)no1 (centres unmarked) | 4.225 | 10.49
O=C(NC[C@@H]1CCCO1)c1cccnc1N1CCCC1c1ccccc1 (some centres unmarked) | 4.722 | 13.53
Cc1ccc(C(=O)N2CCC3(CCC(=O)N(C(C)C)C3)CC2)c(O)c1 | 6.516 | -26.59
CC(C)Oc1cccc(CN2CCC(C(C)N3CCOCC3)CC2)c1 (centres unmarked) | 8.193 | 91.46
CCc1ccc(CN2CCN(C)c3ncccc3C2)o1.O=C(O)C(F)(F)F.O=C(O)C(F)(F)F | - | 12.17
CN1CC(=O)N(c2ccsc2)CC12CCN(C(=O)c1cccn1C)C2 (centres unmarked) | 8.667 | -
[H][C@]12CC[C@]([H])(CN(Cc3nccs3)C1)N(Cc1c(C)noc1C)C2=O | - | 4.262
CCOC(=O)[C@]12CCCN(Cc3nccs3)C[C@H]1CN(CC(C)C)C2 | 3.546 | -
CNC(=O)C1Cn2ccnc2C2(CCN(Cc3c(C)noc3C)CC2)O1 (centres unmarked) | 7.96 | -11.81
O=C(C1CCC2(CCN(Cc3cccnc3)CC2)CO1)N1CCCC1.O=C(O)C(F)(F)F.O=C(O)C(F)(F)F (centres unmarked) | - | 32.26
CN(CCc1ccncc1)C(=O)c1sccc1OC(F)F | 6.593 | -8.054
CNc1ccc(CC2CCCN(C(=O)c3c(C)noc3C)C2)nn1 (centres unmarked) | 9.176 | -11.49
CC(C)c1ncc(CN2CCOC(C(=O)Nc3ccccc3)C2)cn1 (centres unmarked) | 11 | 0.008815
CC(C)(C)OC(=O)NCCc1csc(N2CCCC2)n1 | 23.34 | -4.017
O=C1CCN(C(=O)C2(c3ccc(F)cc3)CCOCC2)CCN1 | 18.39 | 5.629
O=C(NCCCC(=O)N1Cc2ccccc2C1)NCc1ccsc1 | -0.8152 | -17.66
CN(C)C(=O)CN1CCCC(Cc2ccc(N3CCCC3)nn2)C1 (centres unmarked) | 10.93 | -5.827
CN(Cc1ccsc1)C(=O)c1ccc(C2CCCO2)s1 (centres unmarked) | 3.169 | 13.78
CCn1cc(S(=O)(=O)N2CCN(C(=O)c3cc(Br)cs3)CC2)c(C)n1 | 3.118 | -9.602
c1cnc(-c2nc(CN3CCOC(Cn4cncn4)C3)cs2)nc1 (centres unmarked) | 2.614 | -16.8
CC(C)c1cc(C2CCCN2C(=O)c2cn3ccsc3n2)no1 (centres unmarked) | 15.22 | -21.65
COc1ccc(C2(NCc3c(C)nc4c(C)cccn34)CCCC2)cc1 | 16.56 | -
CCN1CCN(c2ccc(NC(=O)CC(C)C)c(C)c2)CC1 | 9.296 | 13.71
CC[C@@H]1N(Cc2cccnc2)CCC[C@]12CCC(=O)N2C.O=C(O)C(F)(F)F.O=C(O)C(F)(F)F | - | -6.56
[H][C@]12CC[C@]([H])(CN(Cc3cscn3)C1)N(C(=O)C1(C#N)CCOCC1)C2 | - | -19.92
COCCCN(Cc1ccncc1)C(=O)C1COc2ccccc2C1 (centres unmarked) | 11.38 | -15.36
CC(C)(C)CC(NC(=O)N1CCC(C(N)=O)CC1)C(F)(F)F (centres unmarked) | 13.28 | -16.1
NCc1ccnc(Oc2ccccc2)c1 | 19.2 | -7.521

Some entries from above, unchanged:

With Cc1cc2ccccc2n1CCC(=O)N1CCCC2(CC1)CNC(=O)O2 (centres unmarked) the screen gave A: 16.88%; B: -24.53%.
With [H][C@@]12CN(CCOC)C[C@]1([H])[C@H](OC)CCN2C(=O)COc1ccccc1 the screen gave B: -1.092%.
With COc1ccc(-n2ccc(C(=O)NCCn3ccnc3)n2)cc1 the screen gave A: 18.29%; B: -6.781%.
With CCN(CC)S(=O)(=O)c1cc(NC(=O)CCc2cscn2)ccc1C the screen gave A: 9.589%; B: -3.555%.
With CCc1nc(CN2CCCC(NCc3cnn(C(C)(C)C)c3)C2)no1 (centres unmarked) the screen gave A: 4.225%; B: 10.49%.
With CC(=O)Nc1ccc(S(=O)(=O)Nc2c(F)cccc2F)cc1 the screen gave A: -1.229%; B: 6.981%.
With [H][C@]12CC[C@]([H])(CN(Cc3nccs3)C1)N(Cc1c(C)noc1C)C2=O the screen gave B: 4.262%.

The values are deposited in ChEMBL (CHEMBL3988442, “University of Dundee, Small-Polar-MMV Screening Library” (2021)).